The target of test [1] is TNFa mutant Y119A (UniProt P01375). Kind of test: Octet RED96 (bio-layer interferometry).
In test [2] the target is TNFa mutant Y119R (UniProt P01375). In words: Octet RED96 (bio-layer interferometry).
The target in test [3] is TNFa mutant Y119A (UniProt P01375). In words: ELISA OD450nm on the Y119 mutants (Figure 12A).
Test [4] concerns the target TNFa mutant Y119R (UniProt P01375). In words: ELISA OD450nm on the Y119 mutants (Figure 12A).
Another test addresses mouse RANKL (mouse) (UniProt O35235). In words: ELISA, protocols similar to example 2.2.

Sequences of proteins named here, by UniProt entry; tags and fusion partners are left off. A change or cut given only in a name is not applied to a line headed by its entry. A line that says so, or that is headed by a name, gives the form on record, which may keep a tag or linker. Residues count along the entry.
TNFa mutant Y119A (P01375, form named): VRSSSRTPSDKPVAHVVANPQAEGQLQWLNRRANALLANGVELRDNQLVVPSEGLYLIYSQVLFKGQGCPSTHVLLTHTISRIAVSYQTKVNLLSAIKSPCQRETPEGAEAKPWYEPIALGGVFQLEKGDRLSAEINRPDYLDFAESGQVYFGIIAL
TNFa mutant Y119R (P01375, form named): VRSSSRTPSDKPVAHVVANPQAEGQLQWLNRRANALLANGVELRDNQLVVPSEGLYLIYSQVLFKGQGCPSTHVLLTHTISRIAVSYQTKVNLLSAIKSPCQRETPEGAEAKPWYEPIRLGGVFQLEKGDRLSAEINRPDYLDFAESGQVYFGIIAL
UniProt O35235, residues 158-316: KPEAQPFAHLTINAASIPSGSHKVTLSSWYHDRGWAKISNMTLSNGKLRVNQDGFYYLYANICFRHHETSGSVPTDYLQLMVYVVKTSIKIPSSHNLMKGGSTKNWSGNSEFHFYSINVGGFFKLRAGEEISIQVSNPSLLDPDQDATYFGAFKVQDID

Results are given in words; binding and its absence hold for the method and conditions named. Some binding calls cover weakened binding; strength is not graded here.

B1: N11 (designed binder)
chain: MVKVKFVMFGKEKEVDTSKIVHVMRQGKLVHFWYEDNGKIDKGFVPEKDAPKELLDMLARAEREK
As for B1, the binding entry in the test with TNFa mutant Y119A [1], with TNFa mutant Y119R [2], with TNFa mutant Y119A [3] and with TNFa mutant Y119R [4] was “binds” each time.

B2: F10 (designed binder)
chain: VKVKFRSDGEEKEVDTSKILLVARQGKIVMFGYDDNGKPGIGLVWEKDDPKELLDMLARAERGK
For the molecule B2, the binding result with mouse RANKL (mouse) is listed as “binds”.

These data come from patent publication EP4799634A2.
